This assay deals with ARB2-M0 (residues Ile512, Ile523 and Leu525 mutated to Ala) (Saccharomyces cerevisiae) (UniProt P53973). Description: SEC; Superdex 200 10/300 GL, 0.5 ml/min, 25 mM Tris-HCl pH 7.5, 200 mM NaCl; apparent molecular mass against standard proteins; both purified. (Size exclusion chromatography separates by hydrodynamic size, large species first.)

These are yes or no findings as the source states them, for the method shown.

B1: ARB2-M0 (residues Ile512, Ile523 and Leu525 mutated to Ala) (domain or fragment, UniProt P53973 457-698)
chain: LQKAIRQQQQHYLSDEFNFVTLPLVSMDLPDNTVLCTPNISESNTIIIVVHDTSDAWAKRNVISGTADASSSVIIDNSLDFIKWGLDRKYGIIDVNIPLTLFEPDNYSGMITSQEVLIYLWDNYIKYFPSVAKIAFIGIGDSYSGIVHLLGHRDTRAVTKTVINFLGDKQLKPLVPLVDETLSEWYFKNSLIFSNNSHQCWKENESRKPRKKFGRVLRCDTDGLNNIIEERFEEATDFILDS
On to B1, for which the binding result is “no binding”.

For the origin of these results see PMC5036196.
